Measured values published in patent publication US6448269B1 (Eli Lilly and Company, priority 1993, dated 2002).
The match of structure and compound is tentative.

Amino acid sequences for entries named in this document (tags omitted). Residues count along the entry.
UniProt P05106, 27-788 limits assumed: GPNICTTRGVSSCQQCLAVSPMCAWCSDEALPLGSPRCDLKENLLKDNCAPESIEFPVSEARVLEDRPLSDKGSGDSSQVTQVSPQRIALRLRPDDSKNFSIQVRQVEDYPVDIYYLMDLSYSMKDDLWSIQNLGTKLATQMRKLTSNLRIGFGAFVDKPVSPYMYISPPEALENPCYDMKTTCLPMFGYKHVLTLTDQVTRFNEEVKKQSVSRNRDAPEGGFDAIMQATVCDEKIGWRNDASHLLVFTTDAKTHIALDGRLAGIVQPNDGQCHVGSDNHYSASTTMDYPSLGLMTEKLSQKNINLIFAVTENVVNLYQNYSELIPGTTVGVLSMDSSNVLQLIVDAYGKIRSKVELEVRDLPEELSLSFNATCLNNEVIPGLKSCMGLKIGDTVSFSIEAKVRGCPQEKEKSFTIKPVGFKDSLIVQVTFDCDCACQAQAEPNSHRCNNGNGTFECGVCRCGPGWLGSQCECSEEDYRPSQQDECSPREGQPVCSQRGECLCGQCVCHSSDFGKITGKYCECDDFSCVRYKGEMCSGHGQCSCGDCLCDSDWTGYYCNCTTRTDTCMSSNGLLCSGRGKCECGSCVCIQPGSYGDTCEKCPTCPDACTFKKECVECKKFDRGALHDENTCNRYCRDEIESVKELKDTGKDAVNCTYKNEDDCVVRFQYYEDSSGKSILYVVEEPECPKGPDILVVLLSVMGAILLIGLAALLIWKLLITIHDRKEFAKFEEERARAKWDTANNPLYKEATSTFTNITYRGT
UniProt P08514, 32-887 limits assumed: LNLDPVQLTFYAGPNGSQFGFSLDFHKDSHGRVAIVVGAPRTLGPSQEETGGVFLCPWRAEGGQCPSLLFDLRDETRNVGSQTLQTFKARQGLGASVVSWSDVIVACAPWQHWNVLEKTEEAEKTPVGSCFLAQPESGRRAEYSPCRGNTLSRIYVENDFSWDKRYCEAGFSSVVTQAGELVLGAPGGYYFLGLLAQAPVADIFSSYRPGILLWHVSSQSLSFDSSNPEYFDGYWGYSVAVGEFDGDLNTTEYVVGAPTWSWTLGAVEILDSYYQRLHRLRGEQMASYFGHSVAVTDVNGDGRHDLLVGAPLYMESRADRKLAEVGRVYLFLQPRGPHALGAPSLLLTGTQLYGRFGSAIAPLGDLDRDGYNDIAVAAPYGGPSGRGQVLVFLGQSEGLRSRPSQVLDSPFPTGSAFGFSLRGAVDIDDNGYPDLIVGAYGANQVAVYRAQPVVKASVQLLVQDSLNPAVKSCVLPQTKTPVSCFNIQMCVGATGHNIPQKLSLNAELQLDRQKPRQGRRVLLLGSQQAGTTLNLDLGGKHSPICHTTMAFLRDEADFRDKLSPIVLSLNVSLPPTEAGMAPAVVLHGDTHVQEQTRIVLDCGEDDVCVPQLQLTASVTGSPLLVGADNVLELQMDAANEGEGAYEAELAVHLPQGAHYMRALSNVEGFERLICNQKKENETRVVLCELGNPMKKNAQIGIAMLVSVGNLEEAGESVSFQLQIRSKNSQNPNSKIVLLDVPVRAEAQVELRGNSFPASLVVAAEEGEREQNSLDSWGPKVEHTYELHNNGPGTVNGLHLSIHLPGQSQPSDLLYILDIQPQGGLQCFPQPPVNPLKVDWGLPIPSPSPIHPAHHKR

Key:
GPIIb-IIIa = GPIIb-IIIa (Homo sapiens, UniProt P05106+P08514); assay: ELISA IIb-IIIa assay (fibrinogen binding to immobilized GPIIb-IIIa); details: read-out: ELISA IIb/IIIa IC50 uM; purified platelet GPIIb-IIIa receptor coated on ELISA plates; biotin-labeled fibrinogen 10 nM, 3 hours at 25° C.
[1] = test system: human platelet-rich plasma; assay: Platelet aggregation assay (Aggregation-Human PRP/ADP); details: read-out: Agg: Human PRP/ADP IC50uM; human platelet-rich plasma incubated with compound 1 minute at 37° C.; ADP-induced aggregation

CC1(CCC(=O)O)CCc2cc(NC(=O)c3ccc(C(N)=O)cc3)ccc2O1 (racemic)
IC50 (GPIIb-IIIa): 1.16 µM | IC50 [1]: 40 µM
